# According to patent US9408922B2, “Anti-tofacitinib antibodies and uses thereof for drug monitoring” (Pfizer Inc., priority 2012, dated 2016):
# Assay: Standard curve with tofacitinib, ELISA (Example 10)
# Assay type: binding
# Details: Biotinylated Tofacitinib 1 ng/mL; antibody dilution 4,000 (6D9.A8), 22,000 (12D4.G6)
# From the text: FIG. 4 is a graph depicting optimal dilution ranges of select monoclonal antibodies of the invention, e.g., 6D9.A8 (open circles) and 12D4.G6 (open squares) as determined by ELISA.
molecule,measurement,value
"12D4.G6: mouse monoclonal anti-tofacitinib antibody; VH SEQ ID NO:12, VL SEQ ID NO:4 (antibody, listed as Mus musculus, V domains shown) VH: QVQLKESGPGLVAPSQSLSITCTVSGFSLSIYSVHWVRQPPGKGLEWLGMIWGGGNTDYNSVLKSRLSISKDNSKSQVFLKVNSLQTDDTAMYYCARIYYGIFWGQGTLVTVSA VL: NIVMTQSPKSMSMSVGERVTLTCKASENVVTYVSWYQQKPEQSPKLLIYGASNRYTGVPDRFTGSGSATDFTLTISSVQAEDLADYHCGQGYSYPYTFGGGTKLEIKR",Standard Range,5 to 405 ng/mL
